In all, about 2,100 compounds went through this assay and about 180 (8.6%) showed an effect of 50% or more. The list shows a part of the results.
tested on: MOLM1 and UCSD/AML1 (averaged); experiment: cell viability relative to DMSO control (POC); higher = less growth inhibition; details: 1 µM; 72 h
Method: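 Primary viability screen in the 3q26 EVI1-high AML cell lines MOLM1 and UCSD/AML1 (1.5e3 cells/well, 384-well), compounds at 1 uM for 72 h. ATP CellTiter-Glo read-out given as percent of viable cells over DMSO control (POC), averaged over duplicates. DMSO was the negative control and 5 uM etoposide the positive control. This mapping covers the MicroSource Spectrum and Selleck anticancer libraries (drug names).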

Compound	cell viability
CC(Cc1ccc(O)cc1)NCC(O)c1cc(O)cc(O)c1 (stereo not drawn)	102%
Cc1ccccc1-n1c(Cn2cnc3c(N)ncnc32)nc2cccc(C)c2c1=O	88%
CSc1nc(NC(C)C)nc(NC(C)C)n1	102%
COc1ccc2c(c1)[C@]13CCCC[C@@H]1[C@H](C2)N(C)CC3	97.6%
C=C[C@H]1CN2CC[C@H]1C[C@H]2[C@H](O)c1ccnc2ccccc12	105%
C[C@H]1O[C@@H](O[C@H]2[C@@H](O)C[C@H](O[C@H]3[C@@H](O)C[C@H](O[C@H]4CC[C@@]5(C)[C@H](CC[C@@H]6[C@@H]5CC[C@]5(C)[C@@H](C7=CC(=O)OC7)[C@@H](O)C[C@]65O)C4)O[C@@H]3C)O[C@@H]2C)C[C@H](O)[C@@H]1O	3.82%
CC1=NCCc2c1[nH]c1cc(O)ccc21	96.2%
O=C1C=CC(=O)c2c(O)cccc21	107%
C[C@]12CC[C@H]3[C@@H](CC[C@]4(O)C[C@@H](O)CC[C@]34C=O)[C@@]1(O)CC[C@@H]2C1=CC(=O)OC1	3.15%
O=C([O-])c1ccccc1-c1c2cc(Br)c(=O)cc-2oc2[c]([Hg+])c([O-])c(Br)cc12.[Na+].[Na+].[OH-]	87.1%
N#C/C(=C\c1cccc(O)c1)C(=O)O [alpha-CYANO-3-HYDROXYCINNAMIC ACID]	94.3%
CC(=O)O[C@@H]1C[C@@]2(C)[C@H](c3ccoc3)C[C@H]3O[C@]32[C@]2(C)C(=O)C(O)=C3C(C)(C)C(=O)C=C[C@]3(C)[C@@H]12	19.3%
C#C[C@]1(O)CC[C@H]2[C@@H]3CCC4=CC(=O)CC[C@]4(C)[C@H]3CC[C@@]21C	93.8%
CC(C)[N+](C)(CCC(C(N)=O)(c1ccccc1)c1ccccc1)C(C)C	115%
CC(C)CC(N(C)C)C1(c2ccc(Cl)cc2)CCC1 (stereo not drawn)	80.2%
COC(=O)[C@@H]1C[C@H](OC(C)=O)C(=O)[C@H]2[C@@]1(C)CC[C@H]1C(=O)O[C@H](c3ccoc3)C[C@]21C	104%
CC[C@@]1(O)C[C@H](O)c2c(cc3c(c2O)C(=O)c2c(O)ccc(O)c2C3=O)[C@H]1C(=O)OC	99.6%
O=C(O)CCCc1ccc(N(CCCl)CCCl)cc1	97.9%
Nc1ccncc1	100%
CC[C@H](C)[C@H]1O[C@]2(C=C[C@@H]1C)C[C@@H]1C[C@@H](C/C=C(\C)[C@@H](O[C@H]3C[C@H](OC)[C@@H](O[C@H]4C[C@H](OC)[C@@H](O)[C@H](C)O4)[C@H](C)O3)[C@@H](C)/C=C/C=C3\CO[C@@H]4[C@H](O)C(C)=C[C@@H](C(=O)O1)[C@]34O)O2.CO[C@H]1C[C@H](O[C@H]2[C@H](C)O[C@@H](O[C@@H]3/C(C)=C/C[C@@H]4C[C@@H](C[C@]5(C=C[C@H](C)[C@@H](C(C)C)O5)O4)OC(=O)[C@@H]4C=C(C)[C@@H](O)[C@H]5OC/C(=C\C=C\[C@@H]3C)[C@]54O)C[C@@H]2OC)O[C@@H](C)[C@@H]1O	91.9%
COc1cc([C@@H]2c3cc4c(cc3[C@H](OC(C)=O)[C@H]3COC(=O)[C@H]23)OCO4)cc(OC)c1OC	6.04%
CC(C)=CC1C(C(=O)OCc2cccc(Oc3ccccc3)c2)C1(C)C (stereo not drawn)	107%
C[CH2][Hg][S]c1ccccc1C(=O)[O-].[Na+]	99.6%
CC1(C)C(=O)C=C[C@]2(C)[C@H]3CC[C@@]4(C)[C@H](c5ccoc5)OC(=O)[C@H]5O[C@]54[C@]3(C)[C@H](O)C[C@@H]12	98.3%
O=C1C=C2C=C[C@@H]3C[C@@]2(O1)[C@H]1CCCCN31	108%
Oc1noc2c1CCNC2	110%
O=c1ccc2c(O)c3ccoc3cc2o1	91.2%

Compound	cell viability
C/C=C(/C)C(=O)O[C@H]1CC[C@@]2(C)[C@@H]3CC[C@H]4[C@]5(O)C[C@H](O)[C@@]6(O)[C@@H](CN7C[C@@H](C)CC[C@H]7[C@@]6(C)O)[C@]5(O)C[C@@]42O[C@]13O	94.9%
CCCC(C)C1(CC)C(=O)NC(=S)NC1=O (stereo not drawn)	96.6%
COc1cc([C@@H]2c3cc4c(cc3[C@H](O)[C@H]3COC(=O)[C@@H]23)OCO4)cc(OC)c1OC	12.3%
CC(CCc1ccccc1)NC(C)C(O)c1ccc(O)cc1 (stereo not drawn)	96%
COc1cccc(C2(O)CCCCC2CN(C)C)c1 (stereo not drawn)	107%
Cc1cc(OC(=O)N2CCCCC2)c(C(C)C)cc1[N+](C)(C)C	111%
C[N+](C)(C)CCCCCCCCCC[N+](C)(C)C	99.5%
c1ccc2nc(N3CCNCC3)ccc2c1	104%
C[N+]1(C)[C@@H]2CC[C@H]1C[C@@H](OC(=O)C(CO)c1ccccc1)C2 (stereo partly drawn)	108%
CN1C[C@H](C(=O)N[C@]2(C)O[C@@]3(O)[C@@H]4CCCN4C(=O)[C@H](Cc4ccccc4)N3C2=O)C[C@@H]2c3cccc4[nH]cc(c34)C[C@H]21	112%
NCCc1cc(O)c(O)cc1O	93.6%
CC(C)=CCC[C@]1(C)C=Cc2c(O)c3c(c(CC=C(C)C)c2O1)O[C@]12C(=C[C@@H]4C[C@H]1C(C)(C)O[C@@]2(C/C=C(/C)C(=O)O)C4=O)C3=O	1.06%
C#CCOS(=O)OC1CCCCC1Oc1ccc(C(C)(C)C)cc1 (stereo not drawn)	89.9%
CC[C@@]1(O)C(=O)OCc2c1cc1n(c2=O)Cc2cc3ccccc3nc2-1	1.42%
O=C1C[C@@H]2OCC=C3CN4CC[C@]56c7ccccc7N1[C@H]5[C@H]2[C@H]3C[C@H]46	100%
N#Cc1nn(-c2c(Cl)cc(C(F)(F)F)cc2Cl)c(N)c1[S+]([O-])C(F)(F)F (stereo not drawn)	104%
CCCCCCCCCc1ccc(O)cc1	105%
Cc1ncc(CNC(=O)N(CCCl)N=O)c(N)n1	111%
CCC12C=CCN3CC[C@@]4(c5ccc(OC)cc5N(C)[C@H]4[C@@](O)(C(=O)OC)[C@@H]1OC(C)=O)[C@@H]32 (stereo partly drawn)	94%
CN1CCCCC1c1ccc(-c2cccnc2)nc1 (stereo not drawn)	107%
CC(=O)Oc1ccc(/C=C/c2cc(OC(C)=O)cc(OC(C)=O)c2)cc1	89.3%
CC1=C(O)C(=O)C=C2C1=CC=C1[C@@]2(C)CC[C@@]2(C)[C@@H]3C[C@](C)(C(=O)O)CC[C@]3(C)CC[C@]12C	30.1%
Oc1cccc2cccnc12	95.3%
N.N.[Cl][Pt][Cl]	103%
N.N.[Cl][Pt][Cl] [Cisplatin]	104%
CCCN1C[C@H](CSC)C[C@@H]2c3cccc4[nH]cc(c34)C[C@H]21	101%

Retrieved one by one from the list above:
Compound	cell viability
N.N.[Cl][Pt][Cl] [Cisplatin]	104%
Oc1cccc2cccnc12	95.3%

From the supplement of paper PMC11150407
